Data as given in PMC6449396.
Results are given in words; binding and its absence hold for the method and conditions named. In cells and extracts the contact can be indirect. Some binding calls cover weakened binding; strength is not graded here. For some of these results: Tags and fused reporters may be left off the sequences shown.

Amino acid sequences for entries named in this document (tags omitted). A change or cut given only in a name is not applied to a line headed by its entry. Chains listed by the source or under a name are the forms on record and can include a tag or linker. Residues count along the entry.
UniProt Q00987: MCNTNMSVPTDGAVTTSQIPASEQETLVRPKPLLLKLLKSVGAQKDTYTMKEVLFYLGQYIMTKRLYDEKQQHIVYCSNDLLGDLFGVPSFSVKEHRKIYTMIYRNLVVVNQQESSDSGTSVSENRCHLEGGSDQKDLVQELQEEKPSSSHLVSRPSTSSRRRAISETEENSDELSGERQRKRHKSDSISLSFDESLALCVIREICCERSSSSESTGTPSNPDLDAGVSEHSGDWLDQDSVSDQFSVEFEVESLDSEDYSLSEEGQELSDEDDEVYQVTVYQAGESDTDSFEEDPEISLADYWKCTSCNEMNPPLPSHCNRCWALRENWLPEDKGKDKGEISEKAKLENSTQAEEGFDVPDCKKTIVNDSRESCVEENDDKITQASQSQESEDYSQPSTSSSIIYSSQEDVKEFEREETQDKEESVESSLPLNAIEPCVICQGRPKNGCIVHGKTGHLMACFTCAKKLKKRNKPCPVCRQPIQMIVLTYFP
HA-tagged PML aa 1–229 (P29590, residues 1-229): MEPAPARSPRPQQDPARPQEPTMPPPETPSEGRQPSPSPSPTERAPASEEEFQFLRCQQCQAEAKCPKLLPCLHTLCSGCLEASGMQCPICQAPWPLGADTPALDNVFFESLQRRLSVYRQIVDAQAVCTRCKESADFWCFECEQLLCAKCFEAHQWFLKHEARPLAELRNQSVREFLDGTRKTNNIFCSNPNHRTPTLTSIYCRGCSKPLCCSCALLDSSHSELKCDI
HA-PML (PML-IV), full length (P29590-5, form named): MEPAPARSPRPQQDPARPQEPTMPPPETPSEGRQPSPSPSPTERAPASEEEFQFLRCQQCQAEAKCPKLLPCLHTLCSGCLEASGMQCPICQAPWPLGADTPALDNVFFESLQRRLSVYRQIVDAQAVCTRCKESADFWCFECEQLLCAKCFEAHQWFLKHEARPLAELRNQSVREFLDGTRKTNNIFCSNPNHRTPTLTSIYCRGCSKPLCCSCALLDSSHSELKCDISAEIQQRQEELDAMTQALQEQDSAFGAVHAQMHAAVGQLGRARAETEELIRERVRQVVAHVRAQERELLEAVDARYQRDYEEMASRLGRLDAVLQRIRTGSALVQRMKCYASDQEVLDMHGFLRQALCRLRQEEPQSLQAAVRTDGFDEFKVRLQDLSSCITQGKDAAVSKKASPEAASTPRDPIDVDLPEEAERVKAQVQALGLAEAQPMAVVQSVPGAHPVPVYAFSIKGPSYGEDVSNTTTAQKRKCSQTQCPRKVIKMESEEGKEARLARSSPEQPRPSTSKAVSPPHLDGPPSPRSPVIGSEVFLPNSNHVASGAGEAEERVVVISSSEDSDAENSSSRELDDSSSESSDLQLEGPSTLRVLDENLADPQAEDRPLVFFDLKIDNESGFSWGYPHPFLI

Legend:
3xFLAG-MDM2 = 3xFLAG-MDM2 (UniProt Q00987); experiment: co-IP; 293T cells co-transfected with tagged PML, tagged MDM2 and increasing amounts of FL Mad1 or Mad1ΔCTD; extracts 48 h after transfection immunoprecipitated with beads coupled to anti-FLAG antibodies
[1] = target: T1, Mad1 aa 180–718, FLAG-tagged fragment (human) (UniProt Q9Y6D9); experiment: co-IP; anti-FLAG M2 affinity gel, 5 h at 4 °C; lysates of transiently transfected HEK-293T cells in RIPA buffer (50 mM Tris–HCl pH 8.0, 1 mM EDTA, 150 mM NaCl, 20% glycerol, 1% NP-40, 0.5% sodium deoxycholate); FLAG-tagged Mad1 constructs as bait, HA-PML constructs detected
T1 sequence: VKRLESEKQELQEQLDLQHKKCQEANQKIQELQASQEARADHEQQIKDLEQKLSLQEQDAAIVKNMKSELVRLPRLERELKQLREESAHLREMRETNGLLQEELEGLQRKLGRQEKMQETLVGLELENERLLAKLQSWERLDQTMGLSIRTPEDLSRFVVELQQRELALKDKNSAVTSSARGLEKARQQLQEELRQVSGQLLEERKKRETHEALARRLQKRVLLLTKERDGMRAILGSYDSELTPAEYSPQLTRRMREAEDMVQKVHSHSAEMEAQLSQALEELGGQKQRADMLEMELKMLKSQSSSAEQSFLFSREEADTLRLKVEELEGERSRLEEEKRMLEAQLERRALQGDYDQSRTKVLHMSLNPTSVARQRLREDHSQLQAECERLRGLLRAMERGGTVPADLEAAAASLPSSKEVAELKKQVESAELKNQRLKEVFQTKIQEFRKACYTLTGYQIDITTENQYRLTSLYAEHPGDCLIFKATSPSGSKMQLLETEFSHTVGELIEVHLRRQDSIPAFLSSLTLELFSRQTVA

[2] = target: T2, Mad1-3xFLAG, full length wild type (human) (UniProt Q9Y6D9); experiment: as above
T2 sequence: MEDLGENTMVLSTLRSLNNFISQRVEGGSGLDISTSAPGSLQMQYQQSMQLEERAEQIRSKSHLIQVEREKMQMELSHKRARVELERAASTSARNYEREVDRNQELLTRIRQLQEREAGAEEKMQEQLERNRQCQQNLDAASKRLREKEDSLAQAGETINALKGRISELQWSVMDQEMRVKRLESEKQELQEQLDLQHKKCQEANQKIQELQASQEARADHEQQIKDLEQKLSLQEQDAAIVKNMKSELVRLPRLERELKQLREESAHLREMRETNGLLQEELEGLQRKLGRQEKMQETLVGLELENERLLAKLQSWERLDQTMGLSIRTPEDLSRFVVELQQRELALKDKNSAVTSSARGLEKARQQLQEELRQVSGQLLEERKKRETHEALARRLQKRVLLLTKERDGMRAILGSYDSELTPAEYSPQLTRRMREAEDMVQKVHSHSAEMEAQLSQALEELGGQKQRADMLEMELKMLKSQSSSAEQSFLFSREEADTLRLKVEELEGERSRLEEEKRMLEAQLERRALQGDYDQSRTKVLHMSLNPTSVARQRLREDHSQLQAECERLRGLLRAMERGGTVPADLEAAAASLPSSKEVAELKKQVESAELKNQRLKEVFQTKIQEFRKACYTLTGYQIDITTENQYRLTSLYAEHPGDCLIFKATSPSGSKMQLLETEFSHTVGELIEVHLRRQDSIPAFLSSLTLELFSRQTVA

| binding (3xFLAG-MDM2) | binding [1] | binding [2] | Substance |
| --- | --- | --- | --- |
| binds | binds | binds | HA-PML (PML-IV), full length (from UniProt P29590-5 1-633) |
| – | – | binds | HA-tagged PML aa 1–229 (from UniProt P29590-5 1-229) (domain or fragment) |
